Z-score data for 103 sequences are collected here from PubChem BioAssay AID1347423 (Functional Genomics Laboratory (NCATS/FGL), 2020).

In all, about 52,000 sequences went through this assay and about 210 (0.4%) were called active.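 Rule for the calls: active = gene whose silencing raises cell survival under the drug, median off-target-corrected z-score across its silencing RNAs 2 or more; inactive = the rest.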 The list shows a part of the results.

This assay is described as follows: Resistance to Poly (ADP-Ribose) Polymerase inhibitor: Gene Identification via Genome-wide siRNA Screen. The settings on record: mouse BRCA2 R2336H ES cells, olaparib, CellTiter-Glo viability; active compounds read high. The gist of the method: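 Genome-wide siRNA screen (3 siRNAs/gene, 20 nM) in mouse ES cells carrying hypomorphic BRCA2 R2336H; olaparib 500 nM added 48 h post-transfection, CellTiter-Glo viability 72 h later. Normalized to plate-median negative control; MAD z-scores, gene median, seed-adjusted.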
For orientation: ATP-based viability assays read luminescence as a measure of living cells.
On to “GGCAAACGAAUGCAUGUACTT against 4921506I22Rik”, for which the z-score is inactive: 0.952.

Take “GGAUCCAUCCGUCUCUAAGTT against 4930535B03Rik”: the z-score is inactive: -1.95.

On to “GGUUGAAUAUACUUAGCACTT against A030008J09”, for which the z-score is inactive: 0.746.

As to GGAUAAUGCUCCAUCAUAGTT against Nab1, the z-score was inactive: -0.571.

For the sequence GGACCUCUAAAAGGAAAAUTT against Tdrd7, the z-score was inactive: -0.25.

Regarding GCCUAAGUUCCCUUAUUAATT against Arfrp1, the z-score was inactive: 0.0934.

For CCUGAACCAACAACGCAAATT against Zfp278, the z-score was inactive: 1.21.

With CCAACGCGUGUUAUAUGUGTT against Prep, the z-score is inactive: 2.5.

Regarding GCUAACACCUCACAUCUGGTT against Adam1a, the z-score is inactive: 0.211.

Turning to GGUUUAUCACAACUACCGCTT against AI839735, the z-score is inactive: -0.133.

On to GGUUGUAAAGGAAGAGAAGTT against Xlkd1, for which the z-score is inactive: -1.33.

For the sequence “CCAAUUGGAAGAAUCCAGGTT against 9930109F21”, the z-score is inactive: -0.0734.

In the case of GAGAGAUUGGUAUUCCUGCTT against Olfr578, the z-score is inactive: 0.663.

For the sequence GGUGUCUUUUUUCCUCUUCTT against Adcy4, the z-score is inactive: -0.895.

GGUACUAGAUUGGAUGUCATT against Slc39a14: the z-score was inactive: -1.42.

For the sequence CCAUAUUGAAACCUCAUUUTT against Drctnnb1a, the z-score was inactive: 0.0306.

For CCGUCAUUGUCUUGGAAGCTT against Syt5, the z-score is inactive: 1.47.

GCGAAGGCUAGAUGUAGUGTT against Emilin1: the z-score was inactive: 1.34.

Regarding “GCUCAUGCCAAGGUACGAUTT against 1110015K06Rik”, the z-score is inactive: 1.22.

As for GGAGACCACGUCCAACAAUTT against Sh3bp2, the z-score was inactive: 2.61.

In the case of GCGUGAUUUUCCCUUGAGGTT against Cyp3a16, the z-score was inactive: 0.253.

For GGAGAUCUCCAUCACACACTT against Rps6ka1, the z-score is inactive: 0.796.

Regarding GGUUUAUGAGUAACUGUCATT against Defb10, the z-score was inactive: -2.73.

As to “GGACAAUAGUGUGCUACCATT against 2900055D03Rik”, the z-score was inactive: 2.24.

For the sequence GGAGAUGGCUUUGAUGCUGTT against Gnmt, the z-score was inactive: 0.262.

On to GGAACCUGUUUGUUUAUCATT against Centa2, for which the z-score is inactive: 0.181.

Turning to “GGUAUGGAUCAAGGUUCUUTT against A530015O12Rik”, the z-score was inactive: -1.14.

In the case of GGAAGCUGUAGAAACACAUTT against Nbn, the z-score was inactive: 1.25.

For “GGAGUGUUUGGUUUCUAUATT against 1200007B05Rik”, the z-score is inactive: 1.1.

On to “ACCCUCACCUCGCAUGACUTT against 2700061N24Rik”, for which the z-score was inactive: 0.53.

As for “GGUACCAUAUGAGAGCUAATT against 2310007F12Rik”, the z-score is inactive: 2.05.

“GGCCUUAGUAUUCUGCCUCTT against B230104P22Rik”: the z-score was inactive: 0.809.

For “GCUGUUUGCCUGGAAUUGGTT against 1110020P15Rik”, the z-score was inactive: -0.198.

As to “GGAAAACAUACUGCUUUGATT against 2210412D01Rik”, the z-score is inactive: -0.0321.

Consider CGUCUAUCUUGGAUUACUATT against Dll1, for which the z-score is inactive: -0.697.

GGAUAUUCUGGACCACUGATT against Myoz2: the z-score was inactive: -0.97.

On to GCACUGAUGUAAGGUAACCTT against Prdm4, for which the z-score was inactive: 0.698.

With GGACGUGCUGUAUUUCAAGTT against Gal3st1, the z-score is inactive: 0.496.

With “GGCUUUUCGUUCUCUGUCATT against A530054K11Rik”, the z-score is inactive: -0.808.

Take CGCUGCCUAAACAAGAUUATT against Cacna1f: the z-score is inactive: 0.274.

As for CCAUUGGAGGAUAAGUUUUTT against Mtm1, the z-score is inactive: -0.207.

As to CGACAAAAGUACUUCGAGCTT against Scrib, the z-score is inactive: 0.719.

As to GGAAAAAGCUGUGAUACUUTT against Hspbap1, the z-score was inactive: -0.24.

With GGUCUAAAAUUGUGCUAAATT against LOC212390, the z-score is inactive: -0.0777.

As for GGAAGUUGUUGGGAACUUCTT against Afmid, the z-score is inactive: -0.466.

Consider GGAAAGCAAAUCAAUGCAATT against Colm, for which the z-score is inactive: 1.4.

Consider CCCAGGAAGCCUUUGAUCUTT against Gmnn, for which the z-score was inactive: -3.02.

Take GCCAAGGACAACUAUUUUGTT against Kcnj9: the z-score was inactive: -0.843.

For CCCUGGAUUGAGGAUCGUUTT against Mrgpra8, the z-score was inactive: 1.3.

For the sequence “GCCUGUACUUCAGAAACUCTT against 6330407G11Rik”, the z-score was inactive: -0.934.

In the case of AUGGGAGAAUCAGCAGAACTT against Set, the z-score is inactive: 1.22.

Consider GGCUGCCUAACUGAUAACATT against Inpp4b, for which the z-score was inactive: -0.557.

For GGAAAUCAAGCCCUACAUCTT against Col4a2, the z-score was inactive: -0.102.

GGAGUUCAUUCUGAAUCAGTT against Etohi2: the z-score was inactive: -0.817.

Regarding GGGCAUCAUCCUGAAAGAGTT against Cenpb, the z-score was inactive: -0.325.

For the sequence GGUGUGCAUCAAGCGACUGTT against Cacng6, the z-score was inactive: 1.29.

Take GCAUGAUUACCAGAACCACTT against Fcgr2b: the z-score is inactive: -0.776.

Take GGAGUCUUACAUAGGAAAATT against Cckbr: the z-score is inactive: 0.166.

As for GGCCAAACAUAAUUUUGAGTT against Cwf19l2, the z-score was inactive: -0.822.

As for GGCAUCCUGAAAAACAAAGTT against Celsr1, the z-score is inactive: 0.144.

As to “GGCAGAAGGGUAUAACUGUTT against C530046L02Rik”, the z-score was inactive: 0.231.

As to CCAUGUAUGCCUCAACAUATT against Ltf, the z-score was inactive: -0.205.

Take GCAGCAUCUACAUGCCGCUTT against Phf16: the z-score is inactive: 0.61.

As to GAGAAGUCAAAACUGUCAUTT against Ear1, the z-score was inactive: 0.756.

As for GGAUCCACUGCUUUCAAGUTT against Dibd1, the z-score is inactive: 0.683.

With GGUAGAGCAUCAGUAUCUATT against Tex16, the z-score is inactive: -0.279.

For the sequence UGUGGACAAGGACUACUAATT against Ldoc1, the z-score is inactive: -0.996.

On to GGAGAAGGUCGAAAAGCCUTT against Rybp, for which the z-score was inactive: -1.06.

Take GCUUGAUUGUCAGUUGGAATT against Tcp11: the z-score was inactive: -0.666.

Regarding GCUUAUUGAACUAUUGUUGTT against Trpc4, the z-score is inactive: 1.27.

On to “GUGACAAUGAAAAAUGUGUTT against 1810046I24Rik”, for which the z-score was inactive: -0.177.

With GCAAGUGUAGAUAAAGUAUTT against Msi2h, the z-score was inactive: 0.586.

For the sequence GGUUUGAUCUCAUUUUCCUTT against Mcm4, the z-score was inactive: -2.16.

As for GCAAGCUAUGGUACGCAGATT against Dapk2, the z-score is inactive: 2.68.

As for GCAUUUUGCCCAAUCAAGATT against BC027072, the z-score was inactive: 0.74.

For “GCUUUUGGACUGAAUCUCATT against 2210016L21Rik”, the z-score was inactive: 1.16.

As to GGAGCAGAGGCCAUGAGAATT against Pik3r4, the z-score is inactive: -0.515.

Take GGACAUAGACUUAAGUAGUTT against Casp8ap2: the z-score is inactive: -0.431.

With UGAGGAGACUAUUUAUUAGTT against Olfr1318, the z-score was inactive: -0.0683.

Consider GGUAGAAUGUGUGAUACCCTT against Lzf, for which the z-score was inactive: 0.657.

For “GGAUCCAACAAAUGUUAUUTT against D5Bwg0834e”, the z-score is inactive: 0.921.

On to “GGUCAAUGACAUCGUCAGUTT against D430039N05Rik”, for which the z-score is inactive: 0.611.

Regarding GGCUCGGCUUUUGACACAUTT against Ormdl2, the z-score was inactive: -0.749.

In the case of “GCUUACGUUUCAUUCUCCCTT against 6720463M24Rik”, the z-score is inactive: 1.66.

Regarding GGUGUUUGCCCUUCCGUGATT against Gpr30, the z-score was inactive: -0.963.

“CCGUUAAGUAGCUGGAAGATT against 4930522D07Rik”: the z-score was inactive: 0.187.

For the sequence GCAGGACAAGGACAACACUTT against Dyrk2, the z-score is inactive: 2.56.

For CCAUUUAAUCUGGCAGAGCTT against Kif11, the z-score is inactive: -0.191.

Regarding GGUAGUGGCUUGAACAGGUTT against V1ri4, the z-score was inactive: 0.933.

Regarding GGCCAUGCUACAAGUUCAATT against Trem1, the z-score is inactive: 0.145.

Take “GGGUUUUGGAGACAGUAUUTT against 2700081O15Rik”: the z-score is inactive: -1.04.

Consider GGAGGAACAGCUCAGAUGUTT against Olfr524, for which the z-score is inactive: 0.557.

For GCGAACUCGGGAAACAACUTT against Rnf4, the z-score was inactive: -1.48.

For “CGACUGGGACAUUAAAACCTT against 1810008O21Rik”, the z-score is inactive: 1.21.

With “CCGGAUUAAUGAUGCAAUGTT against 2310005O14Rik”, the z-score is inactive: 0.755.

Regarding GGUUCCACUAAUCUUUUUATT against Mark3, the z-score was inactive: 0.417.

CCCUUUAUAUCGAUUUCGGTT against Spata2: the z-score is inactive: 0.149.

For the sequence “GCCUAACUAGCAAUAAAAGTT against 2810403A07Rik”, the z-score was inactive: 0.696.

Turning to CCGGGUAGCUACUGUUAUGTT against Olfr365, the z-score is inactive: 1.03.

Turning to GGCUUUUGAAUACGAGUUUTT against BC014795, the z-score is inactive: 0.0449.

In the case of “CGAGACUAGAUUCGUGCAGTT against D930048N14Rik”, the z-score was inactive: 0.341.

Turning to GGAGGACGUAUCAUUACAUTT against Ptk9, the z-score is inactive: -1.24.

As for GGUUCCUACGAGUUCACUGTT against LOC434198, the z-score is inactive: -3.17.
